Experimental data reported in patent US20090247465A1, “Novel Use of Bivalirudin in the Treatment of Acute Coronary Syndrome” (priority 2008, published 2009).
Part of at least one peptide drawing is inferred or uncertain, most often the ends.

Test system: patients with moderate and high risk NSTE-ACS
Experiment: ACUITY analysis: clinical outcomes at 30 days, consistent UFH/enoxaparin plus GP IIb/IIIa inhibitor vs switch to bivalirudin, and antithrombin-naïve patients
Type: in vivo, human
Description: A total of 4215 patients received prior antithrombin therapy with either UFH or enoxaparin before randomization. Of these, 2137 were randomized to receive the same antithrombin plus a GP IIb/IIIa inhibitor (consistent), while 2078 patients were randomized to receive bivalirudin (switch). There were 2889 patients naïve to antithrombin therapy at randomization, and of these, 1462 patients were randomized to UFH/enoxaparin plus a GP IIb/IIIa inhibitor and 1427 to bivalirudin monotherapy (FIG. 1).
At 30 days, there was no difference in composite ischemia between the two groups: 6.9% for patients switched to bivalirudin vs. 7.4% for patients remaining on consistent UFH/enoxaparin ([RR 0.93; 0.75-1.16], p=0.52). […] Transfusions were also lower in the patients switched to bivalirudin vs. patients remaining on consistent UFH/enoxaparin (1.5% vs. 2.6% [RR 0.60; 0.39-0.92], p=0.02). (Table 2, FIG. 2).
Tables 3a and 3b show clinical outcomes according to type of heparin therapy (UFH or enoxaparin) in patients on prior antithrombin therapy and in patients naive to antithrombin therapy. In patients switched from either UFH or enoxaparin to bivalirudin, there were similar rates of composite ischemia and significant reductions in major bleeding; in patients naive to antithrombin therapy, there were similar rates of composite ischemia and significant reductions in major bleeding for those randomized to bivalirudin vs. either UFH or enoxaparin plus a GP IIb/IIIa inhibitor.

[1] = High Risk, naïve to antithrombin therapy
[2] = High Risk, naïve to antithrombin therapy, bivalirudin vs UFH/Enoxaparin
[3] = High Risk, prior antithrombin therapy, consistent vs switch
[4] = High Risk, prior antithrombin therapy, switch bivalirudin vs consistent UFH/Enoxaparin
[5] = PCI, naïve to antithrombin therapy
[6] = PCI, naïve to antithrombin therapy, bivalirudin vs UFH/Enoxaparin
[7] = PCI, prior antithrombin therapy, consistent vs switch
[8] = PCI, prior antithrombin therapy, switch bivalirudin vs consistent UFH/Enoxaparin
[9] = all patients, naïve to antithrombin therapy
[10] = all patients, naïve to antithrombin therapy, bivalirudin vs UFH/Enoxaparin
[11] = all patients, prior antithrombin therapy, consistent vs switch
[12] = all patients, prior antithrombin therapy, switch bivalirudin vs consistent UFH/Enoxaparin

CC[C@H](C)[C@H](NC(=O)[C@H](CCC(=O)O)NC(=O)[C@H](CCC(=O)O)NC(=O)[C@H](Cc1ccccc1)NC(=O)[C@H](CC(=O)O)NC(=O)CNC(=O)[C@H](CC(N)=O)NC(=O)CNC(=O)CNC(=O)CNC(=O)CNC(=O)[C@@H]1CCCN1C(=O)[C@H](CCCNC(=N)N)NC(=O)[C@@H]1CCCN1C(=O)[C@H](N)Cc1ccccc1)C(=O)N1CCC[C@H]1C(=O)N[C@@H](CCC(=O)O)C(=O)N[C@@H](CCC(=O)O)C(=O)N[C@@H](Cc1ccc(O)cc1)C(=O)N[C@@H](CC(C)C)C(=O)O [Bivalirudin, bivalirudin]
Death, number of patients [1]: 9 | Death, rate [1]: (1.1%) | Ischemic composite, number of patients [1]: 62 | Ischemic composite, rate [1]: (7.6%) | MI, number of patients [1]: 50 | MI, rate [1]: (6.1%) | Unplanned revasc, number of patients [1]: 18 | Unplanned revasc, rate [1]: (2.2%) | Death, RR [2]: 0.98 | Ischemic composite, RR [2]: 1.13 | MI, RR [2]: 1.33 | Net clinical outcome, RR [2]: 0.88 | Unplanned revasc, RR [2]: 0.89 | Death, number of patients [3]: 20 | Death, rate [3]: (1.3%) | Ischemic composite, number of patients [3]: 115 | Ischemic composite, rate [3]: (7.7%) | MI, number of patients [3]: 84 | MI, rate [3]: (5.6%) | Unplanned revasc, number of patients [3]: 33 | Unplanned revasc, rate [3]: (2.2%) | Death, RR [4]: 0.81 | Ischemic composite, RR [4]: 0.94 | MI, RR [4]: 0.92 | Net clinical outcome, RR [4]: 0.82 | Unplanned revasc, RR [4]: 1.40 | Death, number of patients [5]: 3 | Death, rate [5]: (0.4%) | Ischemic composite, number of patients [5]: 57 | Ischemic composite, rate [5]: (6.9%) | MI, number of patients [5]: 50 | MI, rate [5]: (6.0%) | Unplanned revasc, number of patients [5]: 21 | Unplanned revasc, rate [5]: (2.5%) | Death, RR [6]: 0.73 | Ischemic composite, RR [6]: 1.03 | MI, RR [6]: 1.39 | Net clinical outcome, RR [6]: 0.80 | Unplanned revasc, RR [6]: 0.85 | Death, number of patients [7]: 13 | Death, rate [7]: (1.0%) | Ischemic composite, number of patients [7]: 116 | Ischemic composite, rate [7]: (9.0%) | MI, number of patients [7]: 84 | MI, rate [7]: (6.5%) | Unplanned revasc, number of patients [7]: 39 | Unplanned revasc, rate [7]: (3.0%) | Death, RR [8]: 1.55 | Ischemic composite, RR [8]: 1.10 | MI, RR [8]: 1.03 | Net clinical outcome, RR [8]: 0.90 | Unplanned revasc, RR [8]: 1.24 | Death, number of patients [9]: 14 | Death, rate [9]: (1.0%) | MI, number of patients [9]: 67 | MI, rate [9]: (4.7%) | Unplanned revasc, number of patients [9]: 28 | Unplanned revasc, rate [9]: (2.0%) | Death, RR [10]: 1.20 | MI, RR [10]: 1.35 | Net clinical outcome, RR [10]: 0.85 | Unplanned revasc, RR [10]: 0.82 | Death, number of patients [11]: 21 | Death, rate [11]: (1.0%) | MI, number of patients [11]: 100 | MI, rate [11]: (4.8%) | Unplanned revasc, number of patients [11]: 47 | Unplanned revasc, rate [11]: (2.3%) | Death, RR [12]: 0.80 | MI, RR [12]: 0.88 | Net clinical outcome, RR [12]: 0.77 | Unplanned revasc, RR [12]: 1.31 | Net clinical outcome, RR (naïve to antithrombin therapy, bivalirudin vs UFH): 0.87 | Net clinical outcome, RR (naïve to antithrombin therapy, bivalirudin vs enoxaparin): 0.83 | Net clinical outcome, RR (prior UFH, switch bivalirudin vs consistent UFH): 0.75 | Net clinical outcome, RR (prior enoxaparin, switch bivalirudin vs consistent enoxaparin): 0.81
